Entries after “also recorded” stand apart in the source; their conditions may differ. At least one peptide structure holds a part that was inferred or is arguable (an end, a ring closure or a residue).
Assay: Quantitation of PTH oxidation (Trp23, Met8) by tryptic peptide mapping LC/MS/MS; PTH 0.1 mg/mL, oxidant 1 mM, 40° C., pH 5.0
Assay type: physicochemical

## CC[C@H](C)[C@H](NC(=O)[C@H](CCC(=O)O)NC(=O)[C@H](CO)NC(=O)[C@@H](NC(=O)[C@@H](N)CO)C(C)C)C(=O)N[C@@H](CCC(N)=O)C(=O)N[C@@H](CC(C)C)C(=O)N[C@@H](CCSC)C(=O)N[C@@H](Cc1c[nH]cn1)C(=O)N[C@@H](CC(N)=O)C(=O)N[C@@H](CC(C)C)C(=O)NCC(=O)N[C@@H](CCCCN)C(=O)N[C@@H](Cc1c[nH]cn1)C(=O)N[C@@H](CC(C)C)C(=O)N[C@@H](CC(N)=O)C(=O)N[C@@H](CO)C(=O)N[C@@H](CCSC)C(=O)N[C@@H](CCC(=O)O)C(=O)N[C@@H](CCCNC(=N)N)C(=O)N[C@H](C(=O)N[C@@H](CCC(=O)O)C(=O)N[C@@H](Cc1c[nH]c2ccccc12)C(=O)N[C@@H](CC(C)C)C(=O)N[C@@H](CCCNC(=N)N)C(=O)N[C@@H](CCCCN)C(=O)N[C@@H](CCCCN)C(=O)N[C@@H](CC(C)C)C(=O)N[C@@H](CCC(N)=O)C(=O)N[C@@H](CC(=O)O)C(=O)N[C@H](C(=O)N[C@@H](Cc1c[nH]cn1)C(=O)N[C@@H](CC(N)=O)C(=O)N[C@@H](Cc1ccccc1)C(=O)O)C(C)C)C(C)C [PTH, Parathyroid hormone (1-34)]
AAPH, 6 hr
  Met 8: 71%
  Trp 23: 57%
  Trp + 4: 1.3%
  Trp + 16: 35.1%
  Trp + 32: 6.4%
AAPH, 24 hr
  Met 8: 42%
  Trp 23: 16%
  Trp + 4: 2.9%
  Trp + 16: 61%
  Trp + 32: 20.3%
Control (no oxidant), 6 hr
  Met 8: 100%
  Trp 23: 100%
  Trp + 4: 0%
  Trp + 16: 0%
  Trp + 32: 0%
Control (no oxidant), 24 hr
  Met 8: 99%
  Trp 23: 100%
  Trp + 4: 0%
  Trp + 16: 0%
  Trp + 32: 0%
H2O2 + Fe, 6 hr
  Met 8: 44%
  Trp 23: 82%
  Trp + 4: 1.1%
  Trp + 16: 11.3%
  Trp + 32: 5.3%
H2O2 + Fe, 24 hr
  Met 8: 9%
  Trp 23: 65%
  Trp + 4: 2.2%
  Trp + 16: 22.1%
H2O2, 6 hr
  Met 8: 59%
  Trp 23: 99%
  Trp + 4: 0.1%
  Trp + 16: 0.6%
  Trp + 32: 0.5%
H2O2, 24 hr
  Met 8: 17%
  Trp 23: 98%
  Trp + 4: 0.2%
  Trp + 16: 0.8%
  Trp + 32: 0.5%
All five oxidants, 6 and 24 hours
  His oxidation: No His oxidation was observed; also recorded: None of the three His residues was affected
tBHP + Fe, 6 hr
  Met 8: 90%
  Trp 23: 97%
  Trp + 4: 0.2%
  Trp + 16: 2%
  Trp + 32: 0.8%
tBHP + Fe, 24 hr
  Met 8: 78%
  Trp 23: 97%
  Trp + 4: 0.2%
  Trp + 16: 2.1%
  Trp + 32: 0.6%
tBHP, 6 hr
  Met 8: 91%
  Trp 23: 100%
  Trp + 4: 0%
  Trp + 16: 0%
  Trp + 32: 0%
tBHP, 24 hr
  Met 8: 82%
  Trp 23: 100%
  Trp + 4: 0%
  Trp + 16: 0%
  Trp + 32: 0%

Source: patent publication US20130171162A1, “COMPOSITIONS AND METHODS FOR THE PREVENTION OF OXIDATIVE DEGRADATION OF PROTEINS” (priority 2008, published 2013)
